# Results: publication PMC10827914 (Cellular and Molecular Life Sciences: CMLS, 2024)
# Protein sequences, listed by entry. Tags and fused reporters are not part of them. Lines headed by an entry give the natural chain unless they say otherwise; changes in a name come on top. Residues count along the entry.
# UniProt P15144: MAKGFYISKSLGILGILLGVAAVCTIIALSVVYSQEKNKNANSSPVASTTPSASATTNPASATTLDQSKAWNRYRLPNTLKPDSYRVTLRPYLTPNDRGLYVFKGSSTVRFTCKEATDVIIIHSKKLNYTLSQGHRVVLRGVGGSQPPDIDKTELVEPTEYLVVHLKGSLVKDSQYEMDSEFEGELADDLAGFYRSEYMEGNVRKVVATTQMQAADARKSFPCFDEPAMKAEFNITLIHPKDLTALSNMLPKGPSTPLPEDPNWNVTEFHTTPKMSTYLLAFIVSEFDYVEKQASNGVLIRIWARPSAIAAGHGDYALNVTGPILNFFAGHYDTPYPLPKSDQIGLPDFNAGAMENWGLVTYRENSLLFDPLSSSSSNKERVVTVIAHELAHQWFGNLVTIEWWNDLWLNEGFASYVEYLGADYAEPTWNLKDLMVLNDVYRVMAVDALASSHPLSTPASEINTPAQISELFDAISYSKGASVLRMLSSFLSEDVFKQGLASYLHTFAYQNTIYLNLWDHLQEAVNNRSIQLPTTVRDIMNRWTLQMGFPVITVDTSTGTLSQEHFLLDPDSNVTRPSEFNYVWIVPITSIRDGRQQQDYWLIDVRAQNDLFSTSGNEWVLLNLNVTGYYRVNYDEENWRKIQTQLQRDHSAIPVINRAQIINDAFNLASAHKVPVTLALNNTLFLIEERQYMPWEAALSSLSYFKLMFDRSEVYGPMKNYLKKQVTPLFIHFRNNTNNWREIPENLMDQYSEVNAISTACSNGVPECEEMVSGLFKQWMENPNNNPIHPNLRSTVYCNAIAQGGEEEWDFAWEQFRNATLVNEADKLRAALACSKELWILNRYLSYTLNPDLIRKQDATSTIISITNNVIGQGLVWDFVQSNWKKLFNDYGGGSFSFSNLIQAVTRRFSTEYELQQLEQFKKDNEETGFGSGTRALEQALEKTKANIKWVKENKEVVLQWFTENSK
# natural soluble CD13 from human plasma (sCD13) (human (endogenous in human serum)): residues 33-967 of P15144
# UniProt P10645: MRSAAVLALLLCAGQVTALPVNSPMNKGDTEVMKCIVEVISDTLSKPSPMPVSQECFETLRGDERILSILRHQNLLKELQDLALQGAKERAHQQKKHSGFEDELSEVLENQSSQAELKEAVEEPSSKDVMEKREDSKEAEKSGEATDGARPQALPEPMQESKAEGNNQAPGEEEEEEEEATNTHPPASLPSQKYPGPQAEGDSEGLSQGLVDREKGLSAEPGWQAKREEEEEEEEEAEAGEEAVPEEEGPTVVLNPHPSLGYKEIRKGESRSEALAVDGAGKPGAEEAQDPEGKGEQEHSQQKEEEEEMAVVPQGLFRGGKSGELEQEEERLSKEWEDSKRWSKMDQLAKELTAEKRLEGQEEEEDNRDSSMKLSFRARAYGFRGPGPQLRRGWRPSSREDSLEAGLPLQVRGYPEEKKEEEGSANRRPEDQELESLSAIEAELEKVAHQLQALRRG
# Results are given in words; binding and its absence hold for the method and conditions named. Some binding calls cover weakened binding; strength is not graded here.
# How the values were obtained:
# [1] = biological target: His-tagged recombinant human CD13 (rCD13) (human) (UniProt P15144); experiment: ELISA; competition of the binding of rCD13 to mAb WM15 by peptides or G4-TNF; performed as described in Supplementary Fig. S2 (not shown); both purified
# [2] = biological target: natural soluble CD13 from human plasma (sCD13) (human (endogenous in human serum)) (UniProt P15144); experiment: ELISA; competition: plates coated with mAb WM15 (5 μg/mL), filled with human serum containing sCD13 (diluted 1:2) mixed with competitors in DPBS, 0.1% BSA, 0.05% Tween-20, 2 h at room temperature; bound sCD13 detected with rabbit anti-CD13 polyclonal antibody; only the binder purified
# [3] = biological target: membrane form of CD13 expressed by endothelial cells (HUVEC) (human (endogenous in HUVEC)) (UniProt P15144); experiment: flow cytometry on cells; competition: HUVEC or HL-60 cells with mAb WM15 (0.13 nM) mixed with competitor (G4 0-10 µM), DPBS with 5% normal human serum, 1 h at 4 °C; FITC-labeled goat anti-mouse IgG; only the binder purified
# [4] = biological target: membrane form of CD13 expressed by HL60 promyelocytic leukemia cells (human (endogenous in HL-60)) (UniProt P15144); experiment: flow cytometry on cells; data not shown: competition of mAb WM15 binding to HL60 cells with G4 or control peptide; only the binder purified
Binder,binding [1],binding [2],binding [3],binding [4]
"VGCARRYCS (disulfide-bridged) [peptide … (disulfide-bridged, called G4)]",binds,binds,binds,binds
"VAHQLQALRRG (peptide, UniProt P10645 447-457) [chromogranin A 429-439 peptide fragment (CgA429-439)]",,,no binding (tested: 10 µM),
